These are yes or no findings as the source states them, for the method shown. Binding seen in cells or lysates may run through a third protein. A yes stands for co-enrichment or nearness to the bait. Other partners may have been found.
Biological target: ITCH (human (endogenous in MDA-MB-231)) (UniProt Q96J02)
Assay: affinity purification with mass spectrometry; IP with anti-ITCH antibody (BD Biosciences) and protein G beads from MDA-MB-231 lysate (50 mg total protein; 20 mM Tris-HCl pH 7.3, 300 mM KCl, 0.5% Triton); SDS-PAGE bands excised, digested, LC-MS/MS; unspecific mouse IgG as control

Sequences of proteins named here, by UniProt entry; tags and fusion partners are left off.
UniProt Q96J02: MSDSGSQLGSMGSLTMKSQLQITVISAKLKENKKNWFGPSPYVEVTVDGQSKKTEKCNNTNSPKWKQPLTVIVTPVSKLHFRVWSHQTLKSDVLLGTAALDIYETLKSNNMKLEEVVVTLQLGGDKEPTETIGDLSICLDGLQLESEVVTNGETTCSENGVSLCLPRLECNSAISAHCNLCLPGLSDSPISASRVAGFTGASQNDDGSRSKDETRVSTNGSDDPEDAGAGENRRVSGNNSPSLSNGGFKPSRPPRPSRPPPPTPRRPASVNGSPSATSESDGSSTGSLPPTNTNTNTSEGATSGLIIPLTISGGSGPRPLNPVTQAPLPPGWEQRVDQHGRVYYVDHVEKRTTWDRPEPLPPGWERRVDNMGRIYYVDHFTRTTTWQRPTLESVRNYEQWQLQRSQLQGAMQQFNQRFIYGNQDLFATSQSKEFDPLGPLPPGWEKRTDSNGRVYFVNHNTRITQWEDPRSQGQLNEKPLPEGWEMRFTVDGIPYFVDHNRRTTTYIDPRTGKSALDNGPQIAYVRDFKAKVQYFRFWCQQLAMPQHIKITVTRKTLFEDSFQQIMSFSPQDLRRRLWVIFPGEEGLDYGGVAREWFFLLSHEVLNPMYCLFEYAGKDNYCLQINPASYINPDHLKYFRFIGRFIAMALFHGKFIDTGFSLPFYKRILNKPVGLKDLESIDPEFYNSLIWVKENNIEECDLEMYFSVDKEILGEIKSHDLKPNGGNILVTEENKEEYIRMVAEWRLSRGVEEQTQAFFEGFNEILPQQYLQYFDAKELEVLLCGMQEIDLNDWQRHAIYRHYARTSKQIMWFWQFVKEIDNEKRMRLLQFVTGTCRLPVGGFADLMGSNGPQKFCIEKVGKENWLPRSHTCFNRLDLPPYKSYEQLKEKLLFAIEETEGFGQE
UniProt P16403: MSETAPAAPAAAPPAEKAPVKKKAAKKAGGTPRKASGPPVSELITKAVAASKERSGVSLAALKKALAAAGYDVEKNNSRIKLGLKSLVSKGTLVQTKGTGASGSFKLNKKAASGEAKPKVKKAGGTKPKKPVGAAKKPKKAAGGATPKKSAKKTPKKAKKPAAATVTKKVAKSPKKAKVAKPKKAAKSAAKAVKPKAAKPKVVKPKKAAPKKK

Question: For “linker histone protein H1.2 (from UniProt P16403 1-213)”, which binding is on record?
Answer: binds
